Values from PubChem BioAssay AID1259308 (NCATS, 2017)
The whole screen tested about 59,000 reagents; this is a part drawn at random. In the full data, about 1,510 (2.6%) got an active call. 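Calls use total luciferase alone and ignore viability, so some active siRNAs may act by altering cell number.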 Entries without a mark were called inactive. Reagents against one gene are numbered here. Further read-outs or replicates are left out here. Reagent sequences are not shown.

- Screen: 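Candidate targets for better recombinant protein yield in mammalian cells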 (primary screen)
- Cells: human HEK293 embryonic kidney cells stably expressing firefly luciferase (HEK-CMV-Luc2-Hygro)
- Reagent: single siRNA against human genes, 0.8 pmol siRNA per well
- Timing: 72 h
- Measurement: 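Reporter luminescence and viable-cell signal on separate replicate plates, given as percent of non-targeting control and median/MAD z-scores, plus per-cell luciferase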
- Reading the numbers: total luciferase, z-score and total luciferase, % of control: higher = more reporter protein produced
- Hit rule: 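An siRNA counts as active if its total luciferase robust z-score exceeds 3; genes with two or more such siRNAs out of three were retested with fresh siRNAs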
- Calls: active = raised luciferase; inactive = no rise

| target | reagent | total luciferase, z-score | total luciferase, % of control |
| --- | --- | --- | --- |
| CTSO | 1 | -0.0147 | 81.6 |
| CTSO | 2 | 0.916 | 100 |
| CTSO | 3 | 0.19 | 85.7 |
| OR4F15 | 1 | -1.28 | 56.4 |
| OR4F15 | 2 | -1.1 | 60 |
| OR4F15 | 3 | -2.43 | 33.5 |
| TMEM201 | 1 | 0.158 | 85 |
| TMEM201 | 2 | 2.26 | 127 |
| TMEM201 | 3 | 2.75 | 137 |
| IL37 | 1 | 1.65 | 115 |
| IL37 | 2 | 0.137 | 84.6 |
| IL37 | 3 | 1.29 | 108 |
| CDH1 | 1 | 1.21 | 106 |
| CDH1 | 2 | -0.0394 | 81.1 |
| CDH1 | 3 | -0.794 | 66.1 |
| FIBP | 1 | 0.628 | 94.4 |
| FIBP | 2 | 2.21 | 126 |
| FIBP | 3 | -0.0571 | 80.8 |

Entries listed so far whose target name begins with I or i:
| target | reagent | total luciferase, z-score | total luciferase, % of control |
| --- | --- | --- | --- |
| IL37 | 1 | 1.65 | 115 |
| IL37 | 2 | 0.137 | 84.6 |
| IL37 | 3 | 1.29 | 108 |

Further records:
| target | reagent | total luciferase, z-score | total luciferase, % of control |
| --- | --- | --- | --- |
| FAM25EP | 1 | 0.362 | 89.1 |
| FAM25EP | 2 | -1.16 | 58.8 |
| FAM25EP | 3 | 1.05 | 103 |
| METTL24 | 1 | -0.574 | 70.5 |
| METTL24 | 2 | -0.0978 | 79.9 |
| METTL24 | 3 | 2.92 | 140 |
| TBC1D3G | 1 | 1.81 | 118 |
| TBC1D3G | 2 | 1.38 | 109 |
| TBC1D3G | 3 | -0.417 | 73.6 |
| FAAHP1 | 1 | -0.843 | 65.1 |
| FAAHP1 | 2 | -0.293 | 76.1 |
| FAAHP1 | 3 | -0.177 | 78.4 |
| ACTL10 | 1 | 0.194 | 85.7 |
| ACTL10 | 2 | 1.35 | 109 |
| ACTL10 | 3 | -1.27 | 56.7 |
| PEX12 | 1 | -0.455 | 72.8 |
| PEX12 | 2 | -0.457 | 72.8 |
| PEX12 | 3 | 1.76 | 117 |
| FBXW11 | 1 | -1.84 | 45.3 |
| FBXW11 | 2 | -0.476 | 72.4 |
| FBXW11 | 3 | 0.657 | 95 |
